Data source: PubChem BioAssay AID743454 (Peter MacCallum Cancer Centre, 2014)
The deposit covers about 18,000 reagents; this is a part drawn at random. In the full data, 450 (2.5%) got an active call. 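Single biological run; no consistent viability z cut-off exists, so the class columns, not z-scores, define the calls.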 Reagent sequences are not shown.

Aim: 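Knock-downs lowering viability or raising caspase 3/7 activity in vorinostat-treated resistant cells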 (primary screen)
Cells: human HCT116-VR colon cancer cells, selected for vorinostat resistance
Knock-down reagent: siRNA pool against human genes, 40 nM siRNA pool
Timing: vorinostat for 24 h, read-out about 72 h after transfection
Challenge: vorinostat at 2.5 µM final
Read-out: 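Cell viability by CellTiter-Fluor and caspase 3/7 activity by luminescence, each scaled to mock wells per plate, duplicates averaged, then robust z-scored over all plates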
Reading the numbers: viability robust z-score: higher = more viable cells than screen typical; caspase robust z-score: higher = more caspase 3/7 activity than screen typical
Call rule: 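Hits are knock-downs in viability class RV1/RV2 or caspase class CA1/CA2, excluding ones that killed cells in the no-drug cell-count arm; hits then retested with single siRNAs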

With knock-down of CLPB (GeneID 81570) the results were viability hit class no change; caspase hit class no change; viability robust z-score -1.84; caspase robust z-score 0.36; inactive.
Silencing of PKD1 (GeneID 5310) resulted in: viability hit class no change; caspase hit class no change; viability robust z-score -0.09; caspase robust z-score 1.84; inactive.
RAB43 (GeneID 339122) gave viability hit class no change; caspase hit class no change; viability robust z-score -0.34; caspase robust z-score 2.81; inactive.
Against VIRMA (GeneID 25962), the values are viability hit class no change; caspase hit class no change; viability robust z-score -1.26; caspase robust z-score -0.9; inactive.
Silencing of HSPB1 (GeneID 3315) came out at: viability hit class no change; caspase hit class no change; viability robust z-score -0.55; caspase robust z-score 1.9; inactive.
ADAMTS4 (GeneID 9507) showed viability hit class no change; caspase hit class no change; viability robust z-score 0.25; caspase robust z-score -0.62; inactive.
PSMD13 (GeneID 5719) showed viability hit class no change; caspase hit class CA1 (caspase activation); viability robust z-score -2.14; caspase robust z-score 5.92; active.
Silencing of HUNK (GeneID 30811) resulted in: viability hit class no change; caspase hit class no change; viability robust z-score -2.82; caspase robust z-score 1.42; inactive.
After knock-down of PNN (GeneID 5411) the results were viability hit class RV2 (reduced viability); caspase hit class CA2 (caspase activation); viability robust z-score -3; caspase robust z-score 5.88; active.
PNISR (GeneID 25957) scored viability hit class no change; caspase hit class no change; viability robust z-score 0.65; caspase robust z-score -0.48; inactive.
For BPNT2 (GeneID 54928), the entry reads viability hit class no change; caspase hit class no change; viability robust z-score -0.11; caspase robust z-score 1.3; inactive.
For POU3F4 (GeneID 5456), the values are viability hit class no change; caspase hit class no change; viability robust z-score -0.04; caspase robust z-score 1.27; inactive.
